Measurements reported in PubChem BioAssay AID1259405 (NCATS, 2018)

- Test: 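Knock-downs that lift recombinant protein yield in hamster ovary cells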 (primary screen)
- System: Chinese hamster CHO-K1 ovary cells with stable secreted eGFP expression
- Knock-down reagent: single siRNA against mouse genes, 0.8 pmol siRNA per well (2 µl of 400 nM stock)
- Time to read-out: 3 days
- Detection: 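Percent of the per-plate non-targeting control median for intracellular GFP per well by laser scanning cytometry and for cell viability by ATP luminescence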
- Scale: GFP, % of control: higher = more GFP per well, higher productivity; viability (ATP), % of control: higher = more viable cells (more ATP)
- Hit rule: 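Called active when intracellular GFP, relative to negative control, is at or above 120%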
This is an unselected part of about 50,000 reagents. About 4,000 of all reagents (8%) were called active. 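Mouse siRNA library applied to hamster cells; one well for each siRNA.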 Unmarked entries are inactive. The numbers tell different reagents against one gene apart.

"GFP, % of control","viability (ATP), % of control",target gene,siRNA no.
120,95.2,Cmtm4 (CKLF-like MARVEL transmembrane domain containing 4),1
71.6,81,Cmtm4 (CKLF-like MARVEL transmembrane domain containing 4),2
121 (active),133,Cmtm4 (CKLF-like MARVEL transmembrane domain containing 4),3
54.9,44.5,Slc45a2,1
86.9,55.8,Slc45a2,2
121 (active),103,Slc45a2,3
70.7,38,"Adra2b (adrenergic receptor, alpha 2b)",1
117,79.6,"Adra2b (adrenergic receptor, alpha 2b)",2
106,64.4,"Adra2b (adrenergic receptor, alpha 2b)",3
98.4,94.9,Prepl (prolyl endopeptidase-like),1
62.6,99.5,Prepl (prolyl endopeptidase-like),2
38.2,27.8,Prepl (prolyl endopeptidase-like),3
138 (active),110,Gpx6 (glutathione peroxidase 6),1
87.4,84.5,Gpx6 (glutathione peroxidase 6),2
57,66.3,Gpx6 (glutathione peroxidase 6),3
99.3,87.5,Or51f23 (olfactory receptor family 51 subfamily F member 23),1
155 (active),68.2,Or51f23 (olfactory receptor family 51 subfamily F member 23),2
56,76.9,Or51f23 (olfactory receptor family 51 subfamily F member 23),3
68.2,98.7,Or51f23 (olfactory receptor family 51 subfamily F member 23),4
130 (active),79.6,Or51f23 (olfactory receptor family 51 subfamily F member 23),5
134 (active),96,Or51f23 (olfactory receptor family 51 subfamily F member 23),6
46.4,102,Kat2a (K(lysine) acetyltransferase 2A),1
15.5,36.7,Kat2a (K(lysine) acetyltransferase 2A),2
78.7,84.8,Kat2a (K(lysine) acetyltransferase 2A),3
0.181,158,Ltb (lymphotoxin B),1
88.5,68.9,Ltb (lymphotoxin B),2
85.7,97,Dnm3 (dynamin 3),1
99.1,79.8,Dnm3 (dynamin 3),2
96.6,94.3,"Gja3 (gap junction protein, alpha 3)",1
99.1,90.2,"Gja3 (gap junction protein, alpha 3)",2
90.6,104,"Gja3 (gap junction protein, alpha 3)",3
117,85.2,"P2ry10 (purinergic receptor P2Y, G-protein coupled 10)",1
133 (active),81.3,"P2ry10 (purinergic receptor P2Y, G-protein coupled 10)",2
64.1,120,"P2ry10 (purinergic receptor P2Y, G-protein coupled 10)",3
38.1,35.9,"Synm (synemin, intermediate filament protein)",1
64.2,77.6,"Synm (synemin, intermediate filament protein)",2
54.2,70,"Synm (synemin, intermediate filament protein)",3
79.9,78.8,Asrgl1 (asparaginase like 1),1
69.9,88.1,Asrgl1 (asparaginase like 1),2
45.6,67.5,Asrgl1 (asparaginase like 1),3
45.5,33.5,Or5bh3 (olfactory receptor family 5 subfamily BH member 3),1
106,97.5,Or5bh3 (olfactory receptor family 5 subfamily BH member 3),2
75.5,73.4,Or5bh3 (olfactory receptor family 5 subfamily BH member 3),3
62.8,63.7,Afap1l2 (actin filament associated protein 1-like 2),1
42.1,45.9,Afap1l2 (actin filament associated protein 1-like 2),2
89.1,76.1,Afap1l2 (actin filament associated protein 1-like 2),3
74.3,70.2,Olfr197 (olfactory receptor 197),1
58.6,41,Olfr197 (olfactory receptor 197),2
53,92.1,Olfr197 (olfactory receptor 197),3
33.8,24.9,"Zdhhc14 (zinc finger, DHHC domain containing 14)",1
55.6,39.1,"Zdhhc14 (zinc finger, DHHC domain containing 14)",2
49,67.5,"Zdhhc14 (zinc finger, DHHC domain containing 14)",3
92.2,95.4,Fabp6 (fatty acid binding protein 6),1
67.5,65,Fabp6 (fatty acid binding protein 6),2
63,65.1,Fabp6 (fatty acid binding protein 6),3
77.9,91.3,"Mal2 (mal, T cell differentiation protein 2)",1
72.2,90.3,"Mal2 (mal, T cell differentiation protein 2)",2
48.4,72.4,"Mal2 (mal, T cell differentiation protein 2)",3
52.7,67,Pcdh8 (protocadherin 8),1
61.7,60.6,Pcdh8 (protocadherin 8),2
62.9,59.7,Chchd10 (coiled-coil-helix-coiled-coil-helix domain containing 10),1
74.4,83.6,Chchd10 (coiled-coil-helix-coiled-coil-helix domain containing 10),2
158 (active),127,Chchd10 (coiled-coil-helix-coiled-coil-helix domain containing 10),3
63.2,78.8,Exosc10 (exosome component 10),1
62.6,79.5,Exosc10 (exosome component 10),2
70.5,61.9,Exosc10 (exosome component 10),3
103,97.4,Or52n20 (olfactory receptor family 52 subfamily N member 20),1
76.1,60.6,Or52n20 (olfactory receptor family 52 subfamily N member 20),2
61.1,101,Or52n20 (olfactory receptor family 52 subfamily N member 20),3
129 (active),79.4,Spock3,1
88.7,91,Spock3,2
81.7,67.9,Spock3,3
65.6,79.7,Plpbp (pyridoxal phosphate binding protein),1
85.2,80.9,Plpbp (pyridoxal phosphate binding protein),2
85.5,83.8,Mro (maestro),1
133 (active),101,Mro (maestro),2
87.6,50.6,Mro (maestro),3
99.6,99.6,Pmp2 (peripheral myelin protein 2),1
119,111,Pmp2 (peripheral myelin protein 2),2
101,97.2,Pmp2 (peripheral myelin protein 2),3
77.8,88.3,Fkbp1a (FK506 binding protein 1a),1
64.4,74.8,Fkbp1a (FK506 binding protein 1a),2
59.9,63.9,Fkbp1a (FK506 binding protein 1a),3
61.7,62.8,U2af1 (U2 small nuclear ribonucleoprotein auxiliary factor (U2AF) 1),1
93.1,32,U2af1 (U2 small nuclear ribonucleoprotein auxiliary factor (U2AF) 1),2
109,33.7,U2af1 (U2 small nuclear ribonucleoprotein auxiliary factor (U2AF) 1),3

Only “viability (ATP), % of control” (14 entries from above):
Adra2b (adrenergic receptor, alpha 2b) #2: 79.6
Adra2b (adrenergic receptor, alpha 2b) #3: 64.4
Prepl (prolyl endopeptidase-like) #1: 94.9
Prepl (prolyl endopeptidase-like) #2: 99.5
Prepl (prolyl endopeptidase-like) #3: 27.8
Gpx6 (glutathione peroxidase 6) #1: 110 (active)
Gpx6 (glutathione peroxidase 6) #2: 84.5
Gpx6 (glutathione peroxidase 6) #3: 66.3
Or51f23 (olfactory receptor family 51 subfamily F member 23) #1: 87.5
Or51f23 (olfactory receptor family 51 subfamily F member 23) #2: 68.2 (active)
Or51f23 (olfactory receptor family 51 subfamily F member 23) #3: 76.9
Or51f23 (olfactory receptor family 51 subfamily F member 23) #4: 98.7
Or51f23 (olfactory receptor family 51 subfamily F member 23) #5: 79.6 (active)
Or51f23 (olfactory receptor family 51 subfamily F member 23) #6: 96 (active)
